Results reported in paper PMC5828088.
Like-named read-outs stand apart in the source and are kept apart here. Results are given in words; binding and its absence hold for the method and conditions named. In cells and extracts the contact can be indirect. Here binding means that the protein was enriched with, or labelled near, the bait; the list need not be complete. Sequences can lack the tags named with a protein.

Protein sequences, listed by entry. Tags and fused reporters are not part of them. Residues count along the entry.
UniProt Q07021, residues 74-282: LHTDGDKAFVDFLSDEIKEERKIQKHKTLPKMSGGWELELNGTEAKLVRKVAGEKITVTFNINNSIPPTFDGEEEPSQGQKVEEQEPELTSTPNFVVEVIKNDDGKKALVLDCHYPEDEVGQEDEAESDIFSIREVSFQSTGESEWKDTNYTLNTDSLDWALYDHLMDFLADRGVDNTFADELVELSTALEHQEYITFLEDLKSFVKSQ
UniProt P67775: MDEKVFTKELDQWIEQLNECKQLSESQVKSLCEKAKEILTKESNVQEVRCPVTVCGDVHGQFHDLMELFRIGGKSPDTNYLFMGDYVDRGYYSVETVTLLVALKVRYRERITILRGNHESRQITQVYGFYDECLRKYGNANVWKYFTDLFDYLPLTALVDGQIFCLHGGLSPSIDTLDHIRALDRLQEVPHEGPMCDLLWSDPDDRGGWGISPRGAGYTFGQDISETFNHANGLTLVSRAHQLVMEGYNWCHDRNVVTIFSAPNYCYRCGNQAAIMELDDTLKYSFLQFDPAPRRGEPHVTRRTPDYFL

T1: Flag-PKCζ fusion protein (UniProt Q05513)
T1 sequence: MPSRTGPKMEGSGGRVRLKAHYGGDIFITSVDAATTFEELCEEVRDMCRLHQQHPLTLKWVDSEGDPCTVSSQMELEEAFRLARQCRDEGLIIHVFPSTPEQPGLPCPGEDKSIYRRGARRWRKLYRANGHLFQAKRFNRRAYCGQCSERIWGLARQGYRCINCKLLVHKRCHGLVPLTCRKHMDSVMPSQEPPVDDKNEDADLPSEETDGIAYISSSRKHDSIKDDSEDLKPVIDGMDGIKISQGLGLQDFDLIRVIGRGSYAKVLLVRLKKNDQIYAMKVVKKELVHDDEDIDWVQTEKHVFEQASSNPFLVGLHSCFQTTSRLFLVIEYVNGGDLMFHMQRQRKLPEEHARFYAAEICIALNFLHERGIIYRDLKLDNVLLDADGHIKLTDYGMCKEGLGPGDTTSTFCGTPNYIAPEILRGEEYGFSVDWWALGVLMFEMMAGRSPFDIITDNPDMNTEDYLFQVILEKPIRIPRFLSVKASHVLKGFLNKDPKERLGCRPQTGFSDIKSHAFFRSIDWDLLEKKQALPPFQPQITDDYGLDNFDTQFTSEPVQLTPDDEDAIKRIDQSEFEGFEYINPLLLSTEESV


What was measured:
Flag-PKCζ fusion protein [1] = molecular target: T1, Flag-PKCζ fusion protein; assay: affinity purification with mass spectrometry; anti-Flag antibody conjugated agarose beads on precleared extracts of Flag-PKCζ stable MDA-MB-231 cells (serum starved 12 h; lysis buffer 40 mM Tris, 120 mM NaCl, 1% Triton X-100, 1 mM NaF, 1 mM Na3VO4); LC-MS/MS; hits filtered with the CRAPome database
Flag-PKCζ fusion protein [2] = molecular target: T1, Flag-PKCζ fusion protein; assay: as above; remark: listed apart in the source

binding (Flag-PKCζ fusion protein [1]) | binding (Flag-PKCζ fusion protein [2]) | Molecule
binds |  | complement component C1qbinding protein (C1QBP) (from UniProt Q07021 74-282)
binds |  | protein phosphatase 2 catalytic subunit alpha (PPP2CA) (from UniProt P67775 1-309) (enzyme)
 | binds | LLGL1 (protein, UniProt Q15334 1-1064) MMKFRFRRQGADPQREKLKQELFAFNKTVEHGFPNQPSALAFDPELRIMAIGTRSGAVKIYGAPGVEFTGLHRDAATVTQMHFLTGQGRLLSLLDDSSLHLWEIVHHNGCAHLEEALSFQLPSRPGFDGASAPLSLTRVTVVLLVAASDIAALGTEGSSVFFLDVTTLTLLEGQTLAPGEVLRSVPDDYRCGKALGPVESLQGHLRDPTKILIGYSRGLLVIWNQASQCVDHIFLGNQQLESLCWGRDSSTVVSSHSDGSYAVWSVDAGSFPTLQPTVATTPYGPFPCKAINKILWRNCESGGHFIIFSGGMPRASYGDRHCVSVLRAETLVTLDFTSRIIDFFTVHSTRPEDEFDDPQALAVLLEEELVVLDLQTPGWPAVPAPYLAPLHSSAITCSAHVASVPAKLWARIVSAGEQQSPQPVSSALSWPITGGRNLAQEPSQRGLLLTGHEDGTVRFWDASGVALRPLYKLSTAGLFQTDCEHADSLAQAAEDDWPPFRKVGCFDPYSDDPRLGVQKVALCKYTAQMVVAGTAGQVLVLELSDVPVEQAVSVAIIDLLQDREGFTWKGHERLSPRTGPLPWPAGFQPRVLVQCLPPAAVTAVTLHTEWSLVAFGTSHGFGLFDYQRKSPVLARCTLHPNDSLAMEGPLSRVKSLKKSLRQSFRRIRKSRVSGKKRAANASSKLQEANAQLAEQACPHDVEMTPVQRRIEPRSADDSLSGVVRCLYFADTFLRDGAHHGPTMWAGTNSGSVFAYALEVPAAAVGGEKRPEQAVEAVLGKEVQLMHRAPVVAIAVLDGRGRPLPEPYEASRDLAQAPDMQGGHAVLIASEEQFKVFTLPKVSAKTKFKLTAHEGCRVRKVALATFASVACEDYAETCLACLTNLGDVHVFSVPGLRPQVHYSCIRKEDISGIASCVFTRHGQGFYLISPSEFERFSLSARNITEPLCSLDINWPRDATQASYRIRESPKLSQANGTPSILLAPQSLDGSPDPAHSMGPDTPEPPEAALSPMSIDSATSADTTLDTTGDVTVEDVKDFLGSSEESEKNLRNLAEDEAHACAILIK
